Results are given in words; binding and its absence hold for the method and conditions named. Binding calls can cover weak binding; strength is not graded here. For part of these data: In cells and extracts the contact can be indirect.
What was measured:
[1] = target: ParP-His6 (Rv3213c) (Mycobacterium tuberculosis) (UniProt O05853); assay: pull-down
[2] = target: ParP-His6 (Rv3213c) (Mycobacterium tuberculosis) (UniProt O05853); assay: SEC
[3] = target: ParP-His6 (Rv3213c) (Mycobacterium tuberculosis) (UniProt O05853); assay: negative-stain EM

Measured: binding

PafE, wild type, untagged, co-expressed with ParP-His6 (from UniProt P9WKX3 1-174)
binds: all assays above
